This assay has as its target T1, Transforming growth factor-β (TGFβ)-activated kinase 1 (TAK1), endogenous (human (endogenous in AGS)), O43318.
T1 chain: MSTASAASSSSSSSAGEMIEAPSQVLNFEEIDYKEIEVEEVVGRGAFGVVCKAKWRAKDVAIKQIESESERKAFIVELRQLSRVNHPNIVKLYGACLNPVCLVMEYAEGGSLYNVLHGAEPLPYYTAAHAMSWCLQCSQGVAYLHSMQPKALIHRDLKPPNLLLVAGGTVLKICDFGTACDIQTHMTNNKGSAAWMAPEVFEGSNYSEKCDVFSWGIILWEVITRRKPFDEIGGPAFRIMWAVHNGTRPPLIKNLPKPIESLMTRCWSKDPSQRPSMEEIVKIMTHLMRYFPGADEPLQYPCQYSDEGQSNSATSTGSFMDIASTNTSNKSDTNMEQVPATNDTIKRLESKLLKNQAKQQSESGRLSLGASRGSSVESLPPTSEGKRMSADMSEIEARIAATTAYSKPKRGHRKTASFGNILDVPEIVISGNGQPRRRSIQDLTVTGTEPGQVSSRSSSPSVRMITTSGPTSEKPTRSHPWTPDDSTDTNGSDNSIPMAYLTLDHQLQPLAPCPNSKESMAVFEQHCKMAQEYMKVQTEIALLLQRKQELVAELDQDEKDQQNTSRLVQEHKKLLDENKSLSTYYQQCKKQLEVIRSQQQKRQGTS
Kind of assay: affinity purification with mass spectrometry; endogenous TAK1 immunoprecipitated from mock- or TAB1-transfected uninfected AGS cells, on-bead trypsin digestion, LC-MS/MS; isotype antibody IP as filter; proteins found in at least 2 experiments. Conditions: remark: other sources report otherwise.

These are yes or no findings as the source states them, for the method shown. In cells and extracts the contact can be indirect. These calls come from enrichment with a bait or labelling near it, and not all partners need be listed. No binding means not detected with the bait.

B1: IκB kinase IKKα, O15111 1-745 (enzyme)
chain: MERPPGLRPGAGGPWEMRERLGTGGFGNVCLYQHRELDLKIAIKSCRLELSTKNRERWCHEIQIMKKLNHANVVKACDVPEELNILIHDVPLLAMEYCSGGDLRKLLNKPENCCGLKESQILSLLSDIGSGIRYLHENKIIHRDLKPENIVLQDVGGKIIHKIIDLGYAKDVDQGSLCTSFVGTLQYLAPELFENKPYTATVDYWSFGTMVFECIAGYRPFLHHLQPFTWHEKIKKKDPKCIFACEEMSGEVRFSSHLPQPNSLCSLVVEPMENWLQLMLNWDPQQRGGPVDLTLKQPRCFVLMDHILNLKIVHILNMTSAKIISFLLPPDESLHSLQSRIERETGINTGSQELLSETGISLDPRKPASQCVLDGVRGCDSYMVYLFDKSKTVYEGPFASRSLSDCVNYIVQDSKIQLPIIQLRKVWAEAVHYVSGLKEDYSRLFQGQRAAMLSLLRYNANLTKMKNTLISASQQLKAKLEFFHKSIQLDLERYSEQMTYGISSEKMLKAWKEMEEKAIHYAEVGVIGYLEDQIMSLHAEIMELQKSPYGRRQGDLMESLEQRAIDLYKQLKHRPSDHSYSDSTEMVKIIVHTVQSQDRVLKELFGHLSKLLGCKQKIIDLLPKVEVALSNIKEADNTVMFMQGKRQKEIWHLLKIACTQSSARSLVGSSLEGAVTPQTSAWLPPTSAEHDHSLSCVVTPQDGETSAQMIEENLNCLGHLSTIIHEANEEQGNSMMNLDWSWLTE
For the molecule B1, the binding result is on record as “no binding”.

B2: IκB kinase IKKβ, O14920 1-756 (enzyme)
chain: MSWSPSLTTQTCGAWEMKERLGTGGFGNVIRWHNQETGEQIAIKQCRQELSPRNRERWCLEIQIMRRLTHPNVVAARDVPEGMQNLAPNDLPLLAMEYCQGGDLRKYLNQFENCCGLREGAILTLLSDIASALRYLHENRIIHRDLKPENIVLQQGEQRLIHKIIDLGYAKELDQGSLCTSFVGTLQYLAPELLEQQKYTVTVDYWSFGTLAFECITGFRPFLPNWQPVQWHSKVRQKSEVDIVVSEDLNGTVKFSSSLPYPNNLNSVLAERLEKWLQLMLMWHPRQRGTDPTYGPNGCFKALDDILNLKLVHILNMVTGTIHTYPVTEDESLQSLKARIQQDTGIPEEDQELLQEAGLALIPDKPATQCISDGKLNEGHTLDMDLVFLFDNSKITYETQISPRPQPESVSCILQEPKRNLAFFQLRKVWGQVWHSIQTLKEDCNRLQQGQRAAMMNLLRNNSCLSKMKNSMASMSQQLKAKLDFFKTSIQIDLEKYSEQTEFGITSDKLLLAWREMEQAVELCGRENEVKLLVERMMALQTDIVDLQRSPMGRKQGGTLDDLEEQARELYRRLREKPRDQRTEGDSQEMVRLLLQAIQSFEKKVRVIYTQLSKTVVCKQKALELLPKVEEVVSLMNEDEKTVVRLQEKRQKELWNLLKIACSKVRGPVSGSPDSMNASRLSQPGQLMSQPSTASNSLPEPAKKSEELVAEAHNLCTLLENAIQDTVREQDQSFTALDWSWLQTEEEEHSCLEQAS
Take B2: the binding result is “no binding”.
